In patent US20090203708A1, “NOVEL SUBSTITUTED-1-H-QUINAZOLINE-2,4-DIONE DERIVATIVES, PREPARATION METHOD THEREOF AND PHARMACEUTICAL COMPOSITION CONTAINING THE SAME” (Korea Research Institute of Chemical Technology, priority 2006, published 2009):
For at least one compound, name, drawing or mass did not settle the structure.

Amino acid sequences for entries named in this document (tags omitted).
UniProt P14416, whole entry: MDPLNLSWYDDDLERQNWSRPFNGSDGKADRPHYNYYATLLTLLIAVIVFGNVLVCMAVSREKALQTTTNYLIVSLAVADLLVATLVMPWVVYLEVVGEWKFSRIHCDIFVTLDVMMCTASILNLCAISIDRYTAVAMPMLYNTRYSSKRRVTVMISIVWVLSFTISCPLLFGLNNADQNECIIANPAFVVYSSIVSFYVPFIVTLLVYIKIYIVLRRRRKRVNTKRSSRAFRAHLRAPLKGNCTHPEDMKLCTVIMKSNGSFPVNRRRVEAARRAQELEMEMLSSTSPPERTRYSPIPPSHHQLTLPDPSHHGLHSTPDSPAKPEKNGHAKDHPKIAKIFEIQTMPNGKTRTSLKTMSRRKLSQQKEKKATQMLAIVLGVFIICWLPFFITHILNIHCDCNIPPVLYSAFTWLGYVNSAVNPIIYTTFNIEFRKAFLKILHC

Tests used:
[1] = literature; cited from earlier work
D2 (hD2L receptor) = molecular target: T1, D2 (hD2L receptor) (Homo sapiens, UniProt P14416); assay: Radioligand binding assay, dopamine D2; conditions: [3H] spiperone 1 nM
T1 construct: purchased BioSignal Packard Inc., Montreal, Canada
Procedure: (§1) Radioligand binding assays for dopamine receptor family (D1, D2 and D3) were performed according to the protocols provided by the manufacturer of receptor membranes (BioSignal Packard Inc., Montreal, Canada). The radioligands used were [^3H] spiperone (for hD2L and hD3 receptors, 1 nM) and [^3H] YM-09151-2 (hD4.2 receptor, 0.06 nM). Briefly, the buffer used in the D1, D2 and D3 receptor binding assay was 50 mM Tris-HCl (pH 7.4), containing 10 mM MgCl2 and 1 mM EDTA, or 50 mM Tris-HCl (pH 7.4), containing 5 mM MgCl2, 5 mM EDTA, 5 mM KCl, 1.5 mM CaCl2 and 120 mM NaCl. For [^3H] YM-09151-2 receptor binding assays, 50 mM Tris-HCl (pH 7.4) containing 5 mM MgCl2, 5 mM EDTA, 5 mM KCl and 1.5 mM CaCl2, was used as a buffer. Nonspecific binding was determined with haloperidol (10 μM) for D2 and D3 and clozapine (10 μM) for D4 receptors.
(§2) Competition binding studies were carried out with 7-8 concentrations of the test compound run in duplicate tubes, and isotherms from three assays were calculated by computerized nonlinear regression analysis (GraphPad Prism Program, San Diego, […]) to yield median inhibitory concentration (IC50) values.

[2] = molecular target: T2, 5-HT2c (human recombinant receptor, CHO-K1) (Homo sapiens, UniProt P28335); assay: Radioligand binding assay, 5-HT2c; conditions: [3H] Mesulergine 1 nM
T2 sequence (P28335 33-458): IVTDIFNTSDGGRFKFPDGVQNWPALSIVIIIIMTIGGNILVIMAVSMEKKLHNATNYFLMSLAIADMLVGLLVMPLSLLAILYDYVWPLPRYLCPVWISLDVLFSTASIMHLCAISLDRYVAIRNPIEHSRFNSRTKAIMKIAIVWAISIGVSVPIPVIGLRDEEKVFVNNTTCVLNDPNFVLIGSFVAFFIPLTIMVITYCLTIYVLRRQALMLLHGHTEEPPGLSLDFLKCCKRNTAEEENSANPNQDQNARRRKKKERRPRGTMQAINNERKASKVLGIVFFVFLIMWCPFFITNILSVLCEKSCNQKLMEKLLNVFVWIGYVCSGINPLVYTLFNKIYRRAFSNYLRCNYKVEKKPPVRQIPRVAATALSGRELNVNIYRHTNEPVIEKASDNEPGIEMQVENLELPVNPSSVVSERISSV

D4 (hD4.2 receptor) = molecular target: T3, D4 (hD4.2 receptor) (Homo sapiens, UniProt P21917, DEL265-296); assay: Radioligand binding assay, dopamine D4; conditions: [3H] YM-09151-2 0.06 nM
T3 construct: purchased BioSignal Packard Inc., Montreal, Canada
T3 sequence (P21917 with tags, fused parts or gaps DEL265-296): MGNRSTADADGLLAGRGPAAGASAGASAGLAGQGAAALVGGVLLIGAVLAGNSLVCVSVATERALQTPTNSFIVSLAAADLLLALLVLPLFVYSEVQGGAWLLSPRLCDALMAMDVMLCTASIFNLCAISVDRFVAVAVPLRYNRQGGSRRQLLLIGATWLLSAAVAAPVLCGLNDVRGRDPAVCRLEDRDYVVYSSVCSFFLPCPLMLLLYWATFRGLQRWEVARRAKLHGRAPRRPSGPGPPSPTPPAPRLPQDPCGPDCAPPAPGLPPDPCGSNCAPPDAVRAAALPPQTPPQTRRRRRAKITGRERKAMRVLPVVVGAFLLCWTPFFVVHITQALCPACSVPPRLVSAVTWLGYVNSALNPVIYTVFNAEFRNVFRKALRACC
Procedure: as §1, §2

## COc1ccc(NS(=O)(=O)c2sc3ccc(Cl)cc3c2C)cc1N1CCNCC1 [SB-271046, reference compound]
[1]
  oral bioavailability: > 80%
D2 (hD2L receptor)
  Binding affinity IC50 D2: >10 µM
[2]
  Binding affinity IC50 5-HT2c: 4.651 µM
D4 (hD4.2 receptor)
  Binding affinity IC50 D4: >10 µM
